This is one part of the list.
Tests used:
Experiment in all cases: log2 fold change, soluble protein after heating vs DMSO (PISA); higher = thermal stabilisation; K562 lysate, 10 uM; active = over 0.2 and 3.5 SD of the protein, either way, in both replicates (recomputed)
[1] = compound: C#Cc1cccc(Nc2ncnc3cc(OCCOC)c(OCCOC)cc23)c1 [erlotinib]
In short: (§1)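 To prepare the extract, K562 pellets were dounce-homogenised in PBS pH 7.4 with 1 mM MgCl2, giving crude material at 1 mg/mL protein. This was treated with 10 μM compound for 30 min, then heated in aliquots for 3 min over 48°C-58°C before pooling and addition of NP-40 to 0.5% at 4°C. Centrifugation at 21,000xg for 90 min left soluble protein in the supernatant, which TMTpro 16plex LC-MS/MS quantified with equalised channel sums. Results are log-two fold changes in thermal stability compared with solvent controls, from duplicates.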

The chains behind the UniProt entries cited, without tags or fusion partners. Where a name states a change or a piece, a line headed by the entry shows the natural chain unless it says otherwise.
UniProt Q96NT3: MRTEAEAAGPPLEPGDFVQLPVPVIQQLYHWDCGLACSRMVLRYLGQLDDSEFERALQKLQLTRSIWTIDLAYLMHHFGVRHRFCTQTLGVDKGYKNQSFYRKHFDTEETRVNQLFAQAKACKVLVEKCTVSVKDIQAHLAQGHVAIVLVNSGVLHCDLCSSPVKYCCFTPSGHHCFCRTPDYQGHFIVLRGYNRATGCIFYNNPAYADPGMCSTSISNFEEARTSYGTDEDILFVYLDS
UniProt Q9UBP9: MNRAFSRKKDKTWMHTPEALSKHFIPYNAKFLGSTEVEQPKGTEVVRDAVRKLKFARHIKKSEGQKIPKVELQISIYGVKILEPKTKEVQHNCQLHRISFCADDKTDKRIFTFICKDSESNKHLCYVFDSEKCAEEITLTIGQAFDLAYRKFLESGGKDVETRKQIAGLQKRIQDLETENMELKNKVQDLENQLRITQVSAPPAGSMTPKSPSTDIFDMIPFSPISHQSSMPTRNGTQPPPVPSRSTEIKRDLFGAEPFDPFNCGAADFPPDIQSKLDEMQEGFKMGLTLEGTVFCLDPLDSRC
UniProt P07305, whole entry, looked up: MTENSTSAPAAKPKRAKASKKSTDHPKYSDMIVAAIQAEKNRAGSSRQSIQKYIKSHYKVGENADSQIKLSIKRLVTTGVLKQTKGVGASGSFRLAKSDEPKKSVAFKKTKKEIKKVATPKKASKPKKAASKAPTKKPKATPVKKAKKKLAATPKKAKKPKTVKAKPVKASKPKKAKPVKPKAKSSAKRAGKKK
UniProt P15170, whole entry, looked up: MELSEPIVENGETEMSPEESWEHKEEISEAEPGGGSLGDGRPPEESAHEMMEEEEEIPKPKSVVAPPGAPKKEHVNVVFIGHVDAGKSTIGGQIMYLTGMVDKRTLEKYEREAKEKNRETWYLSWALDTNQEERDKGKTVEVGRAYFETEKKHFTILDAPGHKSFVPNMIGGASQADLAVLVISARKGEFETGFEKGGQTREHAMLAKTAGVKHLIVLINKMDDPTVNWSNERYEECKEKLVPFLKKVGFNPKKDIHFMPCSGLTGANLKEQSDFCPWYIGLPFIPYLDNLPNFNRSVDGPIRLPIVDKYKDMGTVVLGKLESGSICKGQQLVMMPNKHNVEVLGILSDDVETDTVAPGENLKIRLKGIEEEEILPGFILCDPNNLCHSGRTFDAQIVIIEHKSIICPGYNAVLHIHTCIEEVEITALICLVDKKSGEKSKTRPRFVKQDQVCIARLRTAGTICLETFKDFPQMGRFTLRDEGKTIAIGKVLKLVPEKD
UniProt P51610: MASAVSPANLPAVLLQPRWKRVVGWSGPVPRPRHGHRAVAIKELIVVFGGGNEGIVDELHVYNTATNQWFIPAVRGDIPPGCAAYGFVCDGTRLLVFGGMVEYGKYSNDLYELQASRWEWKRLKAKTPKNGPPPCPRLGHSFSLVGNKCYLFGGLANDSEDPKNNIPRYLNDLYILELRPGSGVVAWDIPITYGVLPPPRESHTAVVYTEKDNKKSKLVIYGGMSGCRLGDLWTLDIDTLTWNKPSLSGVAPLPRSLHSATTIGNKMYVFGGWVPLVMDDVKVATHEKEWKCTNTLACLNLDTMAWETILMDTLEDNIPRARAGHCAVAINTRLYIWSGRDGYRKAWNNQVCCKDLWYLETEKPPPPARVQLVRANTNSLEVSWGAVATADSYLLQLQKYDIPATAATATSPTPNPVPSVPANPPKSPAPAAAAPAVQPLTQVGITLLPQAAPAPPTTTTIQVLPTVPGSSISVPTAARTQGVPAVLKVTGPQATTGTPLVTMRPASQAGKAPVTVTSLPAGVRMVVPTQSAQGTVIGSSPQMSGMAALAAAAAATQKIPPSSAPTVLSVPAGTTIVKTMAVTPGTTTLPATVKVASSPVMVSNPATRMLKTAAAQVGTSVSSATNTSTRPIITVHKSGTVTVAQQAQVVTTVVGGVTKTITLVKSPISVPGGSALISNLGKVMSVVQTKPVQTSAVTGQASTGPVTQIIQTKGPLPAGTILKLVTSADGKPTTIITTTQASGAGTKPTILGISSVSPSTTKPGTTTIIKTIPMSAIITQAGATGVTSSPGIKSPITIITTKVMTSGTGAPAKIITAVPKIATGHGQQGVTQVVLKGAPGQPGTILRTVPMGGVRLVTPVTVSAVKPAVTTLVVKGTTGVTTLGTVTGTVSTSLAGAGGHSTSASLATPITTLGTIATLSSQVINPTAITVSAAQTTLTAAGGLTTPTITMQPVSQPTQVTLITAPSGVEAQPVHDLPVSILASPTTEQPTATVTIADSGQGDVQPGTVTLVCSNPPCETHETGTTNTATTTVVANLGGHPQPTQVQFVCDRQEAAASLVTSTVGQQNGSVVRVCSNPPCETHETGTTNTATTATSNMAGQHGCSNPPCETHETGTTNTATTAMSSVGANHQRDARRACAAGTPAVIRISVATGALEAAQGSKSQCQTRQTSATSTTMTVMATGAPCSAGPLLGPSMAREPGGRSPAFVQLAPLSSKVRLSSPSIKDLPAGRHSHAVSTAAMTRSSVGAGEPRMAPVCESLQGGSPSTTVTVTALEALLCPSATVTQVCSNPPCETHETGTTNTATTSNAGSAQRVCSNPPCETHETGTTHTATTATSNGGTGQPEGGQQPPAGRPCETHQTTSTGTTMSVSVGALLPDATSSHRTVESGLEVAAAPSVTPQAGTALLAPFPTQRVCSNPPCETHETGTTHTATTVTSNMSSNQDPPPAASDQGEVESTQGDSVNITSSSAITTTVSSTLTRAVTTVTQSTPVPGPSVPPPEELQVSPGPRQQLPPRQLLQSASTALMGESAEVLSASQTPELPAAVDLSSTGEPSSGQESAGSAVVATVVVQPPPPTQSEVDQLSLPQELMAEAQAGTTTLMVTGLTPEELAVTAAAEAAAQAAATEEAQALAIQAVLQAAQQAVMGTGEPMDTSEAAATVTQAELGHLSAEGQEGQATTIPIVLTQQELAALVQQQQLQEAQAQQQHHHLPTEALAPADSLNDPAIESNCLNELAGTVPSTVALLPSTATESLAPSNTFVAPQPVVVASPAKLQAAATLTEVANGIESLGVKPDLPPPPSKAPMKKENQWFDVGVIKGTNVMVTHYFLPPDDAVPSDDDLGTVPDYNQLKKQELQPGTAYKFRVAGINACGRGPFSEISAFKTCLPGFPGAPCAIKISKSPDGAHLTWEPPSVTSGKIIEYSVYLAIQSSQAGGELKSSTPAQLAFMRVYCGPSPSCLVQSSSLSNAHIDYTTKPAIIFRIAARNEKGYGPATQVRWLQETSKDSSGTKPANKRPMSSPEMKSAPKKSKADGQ
UniProt P57764: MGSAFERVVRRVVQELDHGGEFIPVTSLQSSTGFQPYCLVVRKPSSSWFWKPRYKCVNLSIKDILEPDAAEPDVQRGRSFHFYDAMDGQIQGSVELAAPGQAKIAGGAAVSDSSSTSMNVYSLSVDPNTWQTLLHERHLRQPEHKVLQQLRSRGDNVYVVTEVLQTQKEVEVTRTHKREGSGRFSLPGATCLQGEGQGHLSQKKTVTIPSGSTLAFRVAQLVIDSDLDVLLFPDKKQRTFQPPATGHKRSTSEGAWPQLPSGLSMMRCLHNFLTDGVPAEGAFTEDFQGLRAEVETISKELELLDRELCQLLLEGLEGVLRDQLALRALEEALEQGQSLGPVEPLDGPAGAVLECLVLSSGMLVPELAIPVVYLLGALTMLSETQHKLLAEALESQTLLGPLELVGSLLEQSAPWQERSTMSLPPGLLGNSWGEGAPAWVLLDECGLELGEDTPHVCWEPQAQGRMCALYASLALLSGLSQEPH
UniProt P34947, whole entry, looked up: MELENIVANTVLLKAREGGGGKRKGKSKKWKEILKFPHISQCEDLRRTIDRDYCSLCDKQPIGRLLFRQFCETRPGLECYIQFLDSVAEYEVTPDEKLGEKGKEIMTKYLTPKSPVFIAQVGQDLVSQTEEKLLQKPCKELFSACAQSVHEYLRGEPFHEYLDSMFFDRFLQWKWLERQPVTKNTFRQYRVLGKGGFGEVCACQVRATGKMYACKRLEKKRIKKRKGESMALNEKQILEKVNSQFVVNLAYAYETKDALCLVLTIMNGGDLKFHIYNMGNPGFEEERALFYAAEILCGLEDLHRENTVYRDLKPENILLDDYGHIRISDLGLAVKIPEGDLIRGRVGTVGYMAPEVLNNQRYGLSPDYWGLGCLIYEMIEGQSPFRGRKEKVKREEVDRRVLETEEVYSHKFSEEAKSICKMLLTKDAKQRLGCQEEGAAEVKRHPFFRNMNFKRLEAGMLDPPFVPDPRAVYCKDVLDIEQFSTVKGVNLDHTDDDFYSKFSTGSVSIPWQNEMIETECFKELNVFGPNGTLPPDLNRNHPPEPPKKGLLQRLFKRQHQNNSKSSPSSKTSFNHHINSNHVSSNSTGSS
UniProt Q5JVS0: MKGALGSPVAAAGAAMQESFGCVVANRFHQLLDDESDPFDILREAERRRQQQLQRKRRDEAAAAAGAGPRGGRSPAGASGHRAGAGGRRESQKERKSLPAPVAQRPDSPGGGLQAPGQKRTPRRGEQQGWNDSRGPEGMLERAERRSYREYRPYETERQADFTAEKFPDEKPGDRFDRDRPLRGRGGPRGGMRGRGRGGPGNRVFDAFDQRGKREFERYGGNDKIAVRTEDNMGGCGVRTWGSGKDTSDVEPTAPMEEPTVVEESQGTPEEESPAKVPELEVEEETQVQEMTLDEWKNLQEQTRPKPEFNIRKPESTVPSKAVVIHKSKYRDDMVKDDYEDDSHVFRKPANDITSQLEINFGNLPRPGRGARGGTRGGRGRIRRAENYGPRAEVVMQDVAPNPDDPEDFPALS
UniProt Q6IC98: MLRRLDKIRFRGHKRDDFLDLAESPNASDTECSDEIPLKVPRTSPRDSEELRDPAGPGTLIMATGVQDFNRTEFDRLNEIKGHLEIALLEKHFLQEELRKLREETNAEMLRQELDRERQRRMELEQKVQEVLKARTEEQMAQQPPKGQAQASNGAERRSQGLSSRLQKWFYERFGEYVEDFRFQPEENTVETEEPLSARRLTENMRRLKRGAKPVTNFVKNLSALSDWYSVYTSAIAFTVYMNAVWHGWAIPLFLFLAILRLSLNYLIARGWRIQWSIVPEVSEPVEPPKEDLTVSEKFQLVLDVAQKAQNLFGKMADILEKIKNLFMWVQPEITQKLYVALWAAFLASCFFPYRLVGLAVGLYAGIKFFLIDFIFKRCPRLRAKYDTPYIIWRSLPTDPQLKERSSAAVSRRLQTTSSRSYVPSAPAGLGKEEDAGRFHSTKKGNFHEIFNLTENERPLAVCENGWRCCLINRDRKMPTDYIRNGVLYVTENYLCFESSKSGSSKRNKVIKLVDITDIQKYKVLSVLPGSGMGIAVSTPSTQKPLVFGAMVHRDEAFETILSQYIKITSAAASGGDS
UniProt P41594, whole entry, looked up: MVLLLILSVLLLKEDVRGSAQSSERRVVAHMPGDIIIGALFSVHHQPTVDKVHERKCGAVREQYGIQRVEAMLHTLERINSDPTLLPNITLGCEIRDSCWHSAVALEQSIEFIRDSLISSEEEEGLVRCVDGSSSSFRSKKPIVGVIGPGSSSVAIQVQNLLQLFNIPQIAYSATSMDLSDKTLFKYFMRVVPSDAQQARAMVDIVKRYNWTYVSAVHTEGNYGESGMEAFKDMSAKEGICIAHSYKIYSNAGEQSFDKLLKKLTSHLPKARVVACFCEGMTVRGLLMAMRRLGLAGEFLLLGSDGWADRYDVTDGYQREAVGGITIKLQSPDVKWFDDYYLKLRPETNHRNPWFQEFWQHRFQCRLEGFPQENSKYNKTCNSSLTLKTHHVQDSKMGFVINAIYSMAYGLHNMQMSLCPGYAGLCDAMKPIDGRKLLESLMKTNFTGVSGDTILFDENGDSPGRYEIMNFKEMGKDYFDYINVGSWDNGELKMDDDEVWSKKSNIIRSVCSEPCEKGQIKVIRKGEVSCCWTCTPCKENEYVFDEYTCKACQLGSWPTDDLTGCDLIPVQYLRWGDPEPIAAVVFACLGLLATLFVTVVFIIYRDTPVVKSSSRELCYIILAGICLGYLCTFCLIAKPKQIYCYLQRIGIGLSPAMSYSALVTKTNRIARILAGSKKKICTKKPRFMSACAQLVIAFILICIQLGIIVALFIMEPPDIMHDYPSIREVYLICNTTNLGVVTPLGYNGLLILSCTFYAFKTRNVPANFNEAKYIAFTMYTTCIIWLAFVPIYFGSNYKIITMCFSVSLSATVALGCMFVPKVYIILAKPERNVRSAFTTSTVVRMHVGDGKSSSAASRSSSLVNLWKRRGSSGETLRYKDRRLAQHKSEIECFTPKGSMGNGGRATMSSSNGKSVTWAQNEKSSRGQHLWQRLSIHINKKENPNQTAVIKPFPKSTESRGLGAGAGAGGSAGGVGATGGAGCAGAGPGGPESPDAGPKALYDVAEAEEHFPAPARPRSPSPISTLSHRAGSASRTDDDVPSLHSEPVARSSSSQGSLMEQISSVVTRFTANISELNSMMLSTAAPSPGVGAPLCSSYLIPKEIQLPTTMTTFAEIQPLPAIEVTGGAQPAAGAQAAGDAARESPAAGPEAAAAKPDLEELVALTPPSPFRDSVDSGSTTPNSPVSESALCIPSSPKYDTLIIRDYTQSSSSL

[2] = compound: C1=CC(=CC=C1C2=NC3=C(N2)C=C(C=C3)C(=O)N)OC4=CC=C(C=C4)Cl
In short: as §1

[3] = compound: C1=CC=C(C=C1)C2=NC(=C(N2)C3=CC=NC=C3)C4=CC(=C(C=C4)Cl)O
In short: as §1

[4] = compound: C1COCCN1CCN2C3=CC=CC=C3N=C2NC(=O)C4=CC(=CC=C4)[N+](=O)[O-] [IRAK-1-4 Inhibitor I]
In short: as §1

[5] = compound: CC(=O)c1cnc2ccc(-c3cc(Cl)c(O)c(Cl)c3)nc2c1N[C@H]1CC[C@H](CN(C)C)CC1
In short: as §1

[6] = compound: CC(C)(C)Cn1c(N)nc2ccc(-c3[nH]c(C(C)(C)C)nc3-c3ccc(F)cc3)nc21 [ralimetinib]
In short: as §1

[7] = compound: CC(C)(O)CC(=O)NCCn1ccc2ncnc(Nc3ccc(Oc4cccc(C(F)(F)F)c4)c(Cl)c3)c21
In short: as §1

[8] = compound: CC(C)C1=C2N=C(C=C(N2N=C1)NCC3=CC=CC=C3)NCCCCCCN
In short: as §1

[9] = compound: CC1=C(C2=C(C=C1)C(=O)C3=CC=CC=C3N2CCCN)C
In short: as §1

[10] = compound: CC1=C(C=C(C=C1)NC(=O)C2=CC(=CC=C2)C(C)(C)C#N)NC3=CC4=C(C=C3)N=CN(C4=O)C
In short: as §1

[11] = compound: CC1=C(C=C(C=C1)NC(=O)C2=CC(=CC=C2)N(C)C)NC(=O)C3=CC=C(C=C3)O
In short: as §1

[12] = compound: CC1=CC=C(C=C1)SC2=C3C=C(SC3=CN=C2)C(=O)N
In short: as §1

[13] = compound: C1CCN(C1)C(=O)NC2=CC=CC(=C2)NC3=NC=C(C(=N3)NCCC4=CN=CN4)Br
In short: as §1

[14] = compound: C1CN(CCC1(CC2=CC=C(C=C2)Cl)N)C3=NC=NC4=C3C=CN4
In short: as §1

[15] = compound: C/C(=N\NC(=O)C1=CC(=CC=C1)S(=O)(=O)N2CCOCC2)/C3=C(C=CC(=C3)Cl)O
In short: as §1

[16] = compound: C1=CC2=C(C=CC(=C2)/C=C\3/C(=O)NC(=NCC4=CC=CS4)S3)N=C1
In short: as §1

[17] = compound: C1=CC=C2C(=C1)C3=NNC4=CC=CC(=C43)C2=O
In short: as §1

[18] = compound: C1=CC2=NC=CN=C2C=C1/C=C/3\C(=O)NC(=O)S3
In short: as §1

[19] = compound: C=CC(=O)N1CCC[C@@H](n2nc(-c3ccc(Oc4ccccc4)cc3)c3c(N)ncnc32)C1 [ibrutinib]
In short: as §1

[20] = compound: CC1=C(C(CC(=O)N1)C2=CC=C(C=C2)C(F)(F)F)C(=O)NC3=C(C=C4C(=C3)C=NN4)F
In short: as §1

Measured: log2 fold change

GUCD1 isoform 3 (UniProt Q96NT3)
inactive: [1] -0.183 | [2] -0.113 | [3] 0.084 | [4] -0.064 | [5] -0.067 | [6] -0.137 | [7] 0.07 | [8] -0.162 | [9] 0.017 | [10] 0.051 | [11] -0.016 | [12] 0.095

GRN (UniProt P28799)
inactive: [1] -0.029 | [2] -0.003 | [3] -0.035 | [13] -0.013 | [14] -0.023 | [4] 0.036 | [5] -0.071 | [6] -0.023 | [7] 0.012 | [8] -0.001 | [9] 0.009 | [10] -0.074 | [11] 0.026 | [12] -0.091

HBD (UniProt E9PEW8)
inactive: [15] 0.092 | [16] 0.054 | [17] -0.074 | [5] -0.016 | [10] 0.053 | [12] 0.185

HBZ, A0A494C057
inactive: [15] -0.062 | [16] 0.011 | [18] -0.053 | [3] 0.116 | [17] -0.07 | [4] -0.065 | [19] 0.153 | [5] 0.016 | [6] 0.052 | [7] 0.125 | [20] -0.219 | [11] -0.084 | [12] 0.035

GTF2H2C (UniProt Q6P1K8)
inactive: [3] 0.089 | [13] 0.111 | [14] 0.191 | [4] -0.073 | [6] -0.031 | [7] 0.086 | [9] -0.256 | [10] -0.043 | [11] -0.001

GREB1 (UniProt Q4ZG55)
inactive: [1] 0.068 | [15] 0.022 | [2] 0.04 | [16] 0.088 | [18] -0.057 | [17] -0.314 | [13] -0.083 | [14] 0.291 | [19] -0.109 | [8] 0.036 | [10] 0.404

Pulled one by one from the entries so far, 2 records:
GUCD1 isoform 3 (UniProt Q96NT3)
inactive: [1] -0.183 | [2] -0.113 | [3] 0.084 | [4] -0.064 | [5] -0.067 | [6] -0.137 | [7] 0.07 | [8] -0.162 | [9] 0.017 | [10] 0.051 | [11] -0.016 | [12] 0.095

GTF2H2C (UniProt Q6P1K8)
inactive: [3] 0.089 | [13] 0.111 | [14] 0.191 | [4] -0.073 | [6] -0.031 | [7] 0.086 | [9] -0.256 | [10] -0.043 | [11] -0.001

Following part

GULP1 (UniProt Q9UBP9)
inactive: [1] 0.063 | [15] 0.149 | [2] -0.065 | [16] -0.034 | [18] 0.232 | [3] 0.036 | [17] -0.101 | [13] -0.03 | [14] -0.022 | [4] 0.028 | [19] -0.032 | [6] -0.027 | [7] -0.087 | [8] 0.016 | [20] -0.054 | [9] 0.01 | [10] -0.081 | [11] 0.012

GYPA, A0A2R8Y7F9
inactive: [18] 0.066 | [19] -0.019

GRIPAP1 isoform 2 (UniProt Q4V328)
inactive: [10] -0.067

H3-2 (UniProt Q5TEC6)
inactive: [18] -0.078 | [3] 0.111 | [13] -0.092 | [14] -0.064 | [4] -0.082 | [19] -0.052 | [6] 0.002 | [7] 0.006 | [9] 0.134 | [10] 0.088 | [11] 0.203

HDAC3 (UniProt E7ESJ6)
inactive: [5] -0.107 | [12] -0.004

GPT2 (UniProt Q8TD30)
inactive: [1] -0.058 | [15] -0.058 | [2] 0.078 | [16] 0.033 | [3] 0.051 | [17] -0.102 | [13] -0.076 | [14] 0.064 | [4] 0.038 | [6] -0.131 | [7] -0.217 | [8] -0.035 | [9] -0.059 | [10] 0.04 | [11] 0.033

H3C1 (UniProt P68431)
inactive: [18] 0.828 | [19] -0.11

H6PD (UniProt O95479)
inactive: [1] -0.079 | [2] 0.019 | [18] 0.058 | [3] 0.003 | [13] 0.116 | [14] 0.11 | [4] 0.157 | [19] -0.038 | [5] 0.066 | [6] -0.057 | [7] -0.117 | [8] -0.007 | [20] -0.097 | [9] -0.031 | [10] -0.115 | [11] 0.045 | [12] -0.025

H1-0 (UniProt P07305)
inactive: [9] 0.076 | [10] 0.116

HCFC2 (UniProt Q9Y5Z7)
inactive: [18] -0.01 | [19] 0.022 | [10] -0.209

GSPT1 isoform 2 (UniProt P15170)
inactive: [15] 0.344 | [16] 0 | [17] 0.187 | [5] 0.112 | [12] 0.005

HCFC1 (UniProt P51610)
inactive: [1] -0.137 | [15] 0.131 | [2] 0 | [16] -0.014 | [18] 0.15 | [3] -0.024 | [17] -0.153 | [4] 0.179 | [19] 0.143 | [5] 0.052 | [6] -0.078 | [7] 0.001 | [8] -0.423 | [20] 0.103 | [10] 0.097 | [11] -0.007 | [12] 0.028

GSDMD (UniProt P57764)
inactive: [15] 0.351 | [16] 0.063 | [3] 0.054 | [17] 0.249 | [4] -0.221 | [6] 0.091 | [7] 0.161 | [10] 0.262 | [11] -0.086

GTPBP6 (UniProt O43824)
inactive: [15] 0.187 | [16] 0.11 | [17] -0.048 | [13] -0.082 | [14] 0.037 | [9] -0.617

GRK5 (UniProt P34947)
inactive: [1] 0.083 | [15] 0.249 | [2] -0.096 | [16] 0.004 | [17] 0.246 | [8] 0.025 | [20] -0.019

HABP4 (UniProt Q5JVS0)
inactive: [18] -0.031 | [19] 0.145

GPSM3 (UniProt Q9Y4H4)
inactive: [1] 0.069 | [2] 0.098 | [3] -0.006 | [4] 0.029 | [5] 0.024 | [6] 0 | [7] -0.064 | [8] -0.182 | [20] -0.008 | [9] 0.052 | [10] 0.029 | [11] 0.027 | [12] -0.064

GRAMD4 (UniProt Q6IC98)
inactive: [1] 0.074 | [15] 0.091 | [2] -0.002 | [16] 0.03 | [3] 0.163 | [17] -0.178 | [13] -0.008 | [14] 0.147 | [4] 0.066 | [5] 0.087 | [6] -0.147 | [7] -0.187 | [8] 0.008 | [20] -0.041 | [9] -0.214 | [10] 0.202 | [11] 0.124 | [12] -0.29

GRM5 (UniProt P41594)
inactive: [1] -0.054 | [2] 0.047 | [18] -0.063 | [3] 0.136 | [13] -0.085 | [14] 0.043 | [4] -0.064 | [19] 0.175 | [5] -0.029 | [6] 0.102 | [7] 0.039 | [8] -0.246 | [20] -0.053 | [9] -0.201 | [11] -0.019 | [12] -0.071

GSDME (UniProt O60443)
inactive: [1] 0.073 | [2] 0.011 | [18] -0.004 | [13] -0.062 | [14] -0.046 | [19] -0.081 | [5] -0.024 | [8] -0.073 | [9] 0.117 | [10] -0.084 | [12] -0.034
